# Percent effect of library compounds

By UniProt entry, the sequences of proteins in these tests, tags left out. Residues count along the entry.
UniProt Q4DA54, 1-478: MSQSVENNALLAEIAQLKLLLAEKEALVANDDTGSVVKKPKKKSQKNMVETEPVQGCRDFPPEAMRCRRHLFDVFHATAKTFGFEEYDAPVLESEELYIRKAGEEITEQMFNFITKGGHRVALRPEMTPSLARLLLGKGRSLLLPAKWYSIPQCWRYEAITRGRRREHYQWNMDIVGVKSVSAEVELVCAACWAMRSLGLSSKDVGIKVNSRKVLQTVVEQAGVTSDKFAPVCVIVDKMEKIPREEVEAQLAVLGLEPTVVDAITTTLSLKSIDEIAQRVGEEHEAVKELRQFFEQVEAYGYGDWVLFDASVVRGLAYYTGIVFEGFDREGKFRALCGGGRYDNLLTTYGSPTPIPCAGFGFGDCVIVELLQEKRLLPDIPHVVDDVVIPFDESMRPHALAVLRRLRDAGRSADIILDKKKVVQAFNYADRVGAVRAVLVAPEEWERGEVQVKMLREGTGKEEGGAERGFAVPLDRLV
UniProt P9WNZ1, whole entry: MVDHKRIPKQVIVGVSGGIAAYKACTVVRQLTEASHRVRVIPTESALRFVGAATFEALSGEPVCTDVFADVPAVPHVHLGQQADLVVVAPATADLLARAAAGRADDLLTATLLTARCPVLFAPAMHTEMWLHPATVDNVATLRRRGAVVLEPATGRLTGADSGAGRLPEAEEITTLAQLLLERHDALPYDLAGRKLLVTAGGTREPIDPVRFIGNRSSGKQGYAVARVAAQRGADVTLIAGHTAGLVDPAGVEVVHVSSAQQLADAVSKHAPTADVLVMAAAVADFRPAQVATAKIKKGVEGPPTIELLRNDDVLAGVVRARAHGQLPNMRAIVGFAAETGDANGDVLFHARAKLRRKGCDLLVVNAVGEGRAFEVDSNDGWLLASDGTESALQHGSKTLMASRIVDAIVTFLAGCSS

From ChEMBL document CHEMBL3988442, “University of Dundee, Small-Polar-MMV Screening Library” (2021).

Toxoplasma: 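Assay of Toxoplasma gondii numbers, read through their beta-galactosidase reporter with a colour substrate. Compounds at 10 µM. The record gives no direction; the compounds picked for IC50 retests had high values, so higher reads as fewer parasites. Of about 67,000 compounds tested this way, about 260 (0.38%) reached 50% or more in at least one test.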
TcHisRS: 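Enzyme assay of histidyl-tRNA synthetase; the read-out is not stated. Target: Histidine-tRNA ligase, Trypanosoma cruzi CL Brener (UniProt Q4DA54). Tested at 30 µM. Higher reads as stronger inhibition (inferred: compounds with an IC50 in retests scored well above the rest). Size under these conditions: about 69,000 compounds, about 31 of them at 50% or above in at least one test.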
CoaBC: 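Coenzyme A biosynthesis protein CoaBC, Mycobacterium tuberculosis (UniProt P9WNZ1). Enzyme assay of CoaBC with a phosphate dye (Biomol Green) read at 650 nm. Tested at 30 µM. Higher reads as stronger inhibition, judged from the few compounds that gave an IC50. Most strong results did not repeat in a second test. About 67,000 compounds were tested under these conditions; 0.06% (about 40) showed 50% or more at least once.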
Leishmania in macrophages: 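Cell assay of Leishmania donovani living inside macrophages; the read-out is not stated. Compounds at 30 µM. Direction is inferred from retests: higher values go with stronger inhibition. Of about 69,000 compounds tested this way, about 1,000 (1.5%) reached 50% or more in at least one test.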

Values are the deposited “Percent Effect”, in %. The record does not define 0% and 100%; most values in the screen are far below 50% and negative numbers occur (in some assays of this library far below -100). This is an unselected part of the compounds tested. A dash means the value is not listed here; it may have been measured.

{"compound": "O=C(O)C(F)(F)F.[H][C@@]12CCN(C(=O)c3cnn(C)c3)[C@@]1([H])CCN2Cc1ccccc1", "Toxoplasma": -1.467, "Leishmania in macrophages": 4.091}
{"compound": "CC(NC(=O)c1ccc(Cl)cc1)c1nnc(SCC(N)=O)n1C", "stereo": "configuration not stated", "Toxoplasma": 10.17, "TcHisRS": 0, "CoaBC": -4.388, "Leishmania in macrophages": 18.65}
{"compound": "CCNC(=O)C1CN(Cc2c(-c3cc(C)on3)nn(C)c2Cl)CCO1", "stereo": "configuration not stated", "Toxoplasma": -6.672, "TcHisRS": 1.02, "CoaBC": 7.143, "Leishmania in macrophages": 3.753}
{"compound": "COc1ccc(NC(=O)CN2CCS(=O)(=O)CC2)cn1", "Toxoplasma": -6.679, "TcHisRS": 4.762, "CoaBC": 6.405, "Leishmania in macrophages": 8.822}
{"compound": "COc1cc2c(cc1OC)CN(C(=O)Cn1nc(C)cc1C)CC2", "Toxoplasma": -10.41, "TcHisRS": 4.545, "CoaBC": 2.056, "Leishmania in macrophages": 30.36}
{"compound": "CCc1cccc(N2CCC(NC(=O)c3ccc(=O)[nH]n3)CC2)c1", "Toxoplasma": -5.343, "TcHisRS": 4.887, "CoaBC": 5.222, "Leishmania in macrophages": -6.295}
{"compound": "CN1CCN(C[C@@H]2CN(C(=O)c3ccccc3C#N)C[C@@H]2CO)CC1", "Toxoplasma": 1.164, "TcHisRS": -0.8264, "CoaBC": 10.96, "Leishmania in macrophages": 13.22}
{"compound": "COCCN(C)C[C@@H]1CN(C(=O)c2cccc(Cl)c2)C[C@@H]1CO", "Toxoplasma": 11.31, "TcHisRS": 8.543, "CoaBC": 1.564, "Leishmania in macrophages": -8.073}
{"compound": "CO[C@H]1CC[C@H]2[C@H]1OCCN2C(=O)c1ccc(C)nc1", "TcHisRS": 5.464, "CoaBC": 9.368}
{"compound": "CCc1nc(C)c(-c2nccn2CC2CCN(C3CCCC3)CC2)[nH]1", "Toxoplasma": 2.53, "TcHisRS": 5.051, "CoaBC": 1.279, "Leishmania in macrophages": 34.11}
{"compound": "CC(C)(C)c1ncc(C(=O)N2CCC(N3CCSCC3)CC2)c(O)n1", "Toxoplasma": 5.375, "TcHisRS": 10.1, "CoaBC": 0.2558, "Leishmania in macrophages": -1.593}
{"compound": "CCOC(=O)c1n[nH]cc1-c1cncn1CCn1nc(C)c(Cl)c1C", "Toxoplasma": -1.378, "TcHisRS": 2.281, "CoaBC": 1.607, "Leishmania in macrophages": 13.26}
{"compound": "CCc1nnc(CNCC2CCCN2c2cccnn2)o1", "stereo": "configuration not stated", "Toxoplasma": 4.899, "TcHisRS": -3.306, "CoaBC": -29.46, "Leishmania in macrophages": 28.06}
{"compound": "O=C(Cc1ccccn1)N1CCc2ncnc(N3CCCC3)c2CC1", "TcHisRS": 10.78, "CoaBC": 3.583}
{"compound": "O=C(O)C(F)(F)F.O=C(O)C(F)(F)F.[H][C@@]12CN(CC3CC3)C[C@]1([H])[C@@H](OC)CCN2S(=O)(=O)c1cccnc1", "Toxoplasma": -29.26, "Leishmania in macrophages": 39.75}
{"compound": "COc1ccc(C(=O)NS(C)(=O)=O)cc1-c1ccccc1", "Toxoplasma": -0.5128, "TcHisRS": 6.806, "CoaBC": -4.497, "Leishmania in macrophages": -40.05}
{"compound": "O=C1NCCO[C@H]2CN(C(=O)Cc3ccco3)CC[C@@H]12", "TcHisRS": 2.062, "CoaBC": 5.172}
{"compound": "CCc1ccccc1C(=O)NS(=O)(=O)CCCC#N", "Toxoplasma": 0.2378, "TcHisRS": 6.404, "CoaBC": -4.839, "Leishmania in macrophages": -3.442}
{"compound": "COc1ccc(CNc2n[nH]c(C)n2)cc1", "Toxoplasma": -6.242, "TcHisRS": 10.89, "CoaBC": 0.7282, "Leishmania in macrophages": 6.944}
{"compound": "CN(CC(O)C1CC1)C(=O)Nc1cc(F)cc(Br)c1", "stereo": "configuration not stated", "Toxoplasma": 14.78, "TcHisRS": 2.083, "CoaBC": 10.13, "Leishmania in macrophages": 0.8732}
{"compound": "CCn1ncc2c1C(COC)N(C(=O)c1cccs1)CC2", "stereo": "configuration not stated", "TcHisRS": 5.291, "CoaBC": 3.704}
{"compound": "CC(NC(=O)c1cccnc1N(C)C)c1ccccc1Br", "stereo": "configuration not stated", "Toxoplasma": 0.2271, "TcHisRS": -2.105, "CoaBC": 11.55, "Leishmania in macrophages": -13.99}
{"compound": "COc1ccc(C)cc1NC(=O)Nc1cnc(N2CCCC2)nc1", "Toxoplasma": 2.794, "TcHisRS": 5.528, "CoaBC": -0.361, "Leishmania in macrophages": -0.2164}
{"compound": "CN1CCN(c2ncccn2)CC(C(=O)N(C)C)C1", "stereo": "configuration not stated", "Toxoplasma": 3.035, "TcHisRS": 8.046, "CoaBC": 4.854, "Leishmania in macrophages": 4.69}
{"compound": "COc1cc(N2CCC3(CCN(Cc4nccs4)CC3)C2)ncn1.O=C(O)C(F)(F)F", "Toxoplasma": 7.294, "Leishmania in macrophages": 46.85}
{"compound": "COC1CCN(S(=O)(=O)N2C[C@H](c3ccccc3)[C@@H](N)C2)CC1", "Toxoplasma": -3.593, "TcHisRS": 1.948, "CoaBC": -0.6046, "Leishmania in macrophages": 7.387}
{"compound": "CNC(=O)[C@H]1C[C@@H]2CN(C(=O)Nc3ccccc3)C[C@H]1O2", "TcHisRS": 4.878, "CoaBC": 5.263}

The last 2 entries again:

Compound	Toxoplasma	TcHisRS	CoaBC	Leishmania in macrophages
COC1CCN(S(=O)(=O)N2C[C@H](c3ccccc3)[C@@H](N)C2)CC1	-3.593	1.948	-0.6046	7.387
CNC(=O)[C@H]1C[C@@H]2CN(C(=O)Nc3ccccc3)C[C@H]1O2	-	4.878	5.263	-